# PubChem BioAssay AID463183 (Sanford-Burnham Center for Chemical Genomics, 2010)
# This is one part of the list. The main result of the screen is listed elsewhere. These columns were measured beside it and carry no call. The list favours compounds with an active or inconclusive main result.
# Experiment: hepatocyte lipid droplet accumulation inhibitors, confirmation, imaging, AML12 mouse hepatocytes, single concentration, high-content (AID 463183);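 also: cells counted after overnight compound exposure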
# Settings: BODIPY lipid droplet imaging, measured here: cell count, cytotoxicity, at 5.2 µM, droplets induced with 100 µM oleic acid
row,SMILES,cell count [cells]
1,CCOc1ccc(CN(C)C(=O)CNC(=O)c2ccc3ccccc3c2)cc1OC,1570
2,CCN(CC)c1ccc(/C=C2\CCC(/C=C(\C#N)C(=O)Nc3ccccc3F)=C2N2CCOCC2)cc1,1570
3,CCCCOc1ccc(NC(=O)Cn2c(=O)ccc3c(C)cc(C)nc32)cc1,1670
4,CCCCCCn1c(SCC(=O)Nc2cc(C)on2)nc2ccccc2c1=O,1590
5,Clc1cccc(Nc2nc(-c3ccncc3)cs2)c1,1200
6,CCOc1ccc(CCNC(=O)COC(=O)/C=C/c2ccc(OCC#N)c(OC)c2)cc1OCC,1640
7,COc1ccc(N=C/C=C2/C=C(c3ccccc3)OC(C)(C)O2)cc1,1550
8,O=C(CSc1nc(-c2ccco2)cc(C(F)(F)F)n1)Nc1ccc(C(=O)N2CCOCC2)cc1,1600
9,Cc1oc2ccc(OCc3ccc(F)cc3Cl)cc2c1C(=O)O,1620
10,C/C(=N\Nc1ccc(S(=O)(=O)Nc2ccc(Cl)cc2)cc1[N+](=O)[O-])c1ccc(N2CCOCC2)cc1,1560
11,COc1ccc(N=NC2C(=O)N(c3ccccc3)N=C2C)cc1 (centres undefined),1560
12,CC1CCN(C2=C(NS(=O)(=O)c3ccc(Br)cc3)C(=O)c3ccccc3C2=O)CC1,1510
13,CCCCCC(O)(c1ccc(OCC)cc1)C(CN1CCOCC1)c1ccccc1 (centres undefined),1530
14,CCc1c(C#N)c(SCCC(=O)Nc2cccc(OC)c2)nc2c1C(=O)CC(C)(C)C2,1620
15,CCC(NC(=O)c1cc(COc2cncc(Cl)c2)on1)c1ccncc1 (centres undefined),1600
16,O=C(Nc1nc(-c2cccs2)c(-c2cccs2)s1)C1CCCC1,1680
17,COc1ccc2c(c1)c(CC(=O)Nc1ccc(C)cc1)c(C)n2C(=O)c1ccc(Cl)cc1,1590
18,COc1ccc(C)cc1NC(=O)Nc1ccc(C(=O)N2CCCC2)cc1,1570
19,CC(C)CCNC(=O)c1ccc2c(c1)N(C)C(=O)c1ccccc1S2,1530
20,COc1cccc(-c2cn(-c3cccc(C(F)(F)F)c3)c(=S)[nH]2)c1,1630

row,SMILES,cell count [cells]
1,CCOc1ccc(CCNC(=O)COC(=O)/C=C/c2ccc(C)o2)cc1OCC,1660
2,Oc1c(/C=C/C=C/C=Nc2ccccc2)sc(=S)n1Cc1ccccc1,1600
3,COc1ccccc1N1CCN(C(=O)COc2ccc(S(=O)(=O)NC(C)(C)C)cc2)CC1,1600
4,Cc1ccc(C(C(=O)NC(C)(C)C)N(Cc2ccco2)C(=O)CCC(=O)Nc2ccccn2)cc1 (centres undefined),1500
5,CCN1C(=O)/C(=C/C=C2/Sc3ccc4ccccc4c3N2CCO)SC1=S,1650
6,Cc1cc(NC(=O)c2sccc2C)n(-c2nc3ccccc3[nH]2)n1,1760
7,CCOc1ccc(CCNC(=O)COC(=O)c2cc(OC)cc(OC)c2)cc1OCC,1620
8,CS(=O)(=O)N(Cc1ccc(Cl)cc1)c1ccc(C(=O)N/N=C/c2cc3ccccc3nc2Cl)cc1,1660
9,Cc1ccc(C(C(=O)NC2CCCCC2)N(C(=O)c2csnn2)C2CCCC2)o1 (centres undefined),1620
10,CCOc1cc2[nH]c(=O)n(CCCC(=O)N(C)Cc3ccccc3)c(=O)c2cc1OCC,1560
11,CCOc1ccc(CCNC(=O)CCNS(=O)(=O)c2ccc(Br)cc2)cc1OCC,1640
12,Cc1cc(O)c(C)c(O)c1/C=N/NC(=O)c1cccnc1,1640
13,CCOC(=O)C1CCN(C(=O)C2(NC(=O)Nc3ccccc3Cl)CCCCC2)CC1,1570
14,Cc1ccc(C(=O)NCCNC(=O)c2ccc(C)nc2)cc1,1630
15,O=C(NC(=S)Nc1ccccn1)c1ccc(-c2ccccc2)cc1,1610
16,CCc1ccc(C(=O)CSc2nc3cc(S(=O)(=O)N4CCOCC4)ccc3n2CC)cc1,1640
17,CCOC(=O)c1c(C)[nH]c(N=Nc2ccccc2Cl)c1C,1590
18,CCOc1ccccc1NC(=O)CSc1nnc(Cn2c(=O)sc3ccccc32)n1C,1610
19,O=C(Nc1ccc(Cl)cc1C(=O)NCc1cccnc1)c1ccc(Cl)cc1Cl,1510

# Quoted at random: 3 compounds from above.
row,SMILES,cell count [cells]
3,COc1ccccc1N1CCN(C(=O)COc2ccc(S(=O)(=O)NC(C)(C)C)cc2)CC1,1600
1,CCOc1ccc(CCNC(=O)COC(=O)/C=C/c2ccc(C)o2)cc1OCC,1660
10,CCOc1cc2[nH]c(=O)n(CCCC(=O)N(C)Cc3ccccc3)c(=O)c2cc1OCC,1560
